# Data reported in PubChem BioAssay AID180 (DTP/NCI, 2004).
# The list shows only some results of the screen, not a fair sample: it gathers some chemical classes. Other doses and runs of a compound may be missing. T/C: endpoint of the treated group in % of that of the vehicle group. Some T/C values are marked as having no survivor count here; that says nothing about deaths at the dose. Schedule codes are those of the source, taken here to give the interval after Q, in days (D) or hours (H), and the number of doses after X. Some entries hold several experiments; the results are listed from low to high.
# Test system: BDF1 mice, Adenocarcinoma 755 s.c., tumor weight T/C
# Assay: NCI In Vivo Anticancer Drug Screen. Data for tumor model Adenocarcinoma 755 (subcutaneous) in B6D2F1 (BDF1) mice
# Conditions: T/C endpoint: mean tumor weight, schedule: Q01DX011 (ip), evaluation day not shown, higher T/C = larger tumour
# Experimental: The antitumor activity of compounds was measured in mice bearing transplantable tumors. Survival or tumor size were measured and the results are expressed as the measurement made in the treated group (T) divided by the measurement made in the vehicle treated control group (C). The tumor model used in this assay is Adenocarcinoma 755 (subcutaneous) in B6D2F1 (BDF1) mice
structure (smiles),measurement,setting,value
CC(C(=O)O)N(CCCl)CCCl (stereo not drawn),T/C,"dose: 0.44 mg/kg/injection, vehicle: other",45 % of control [survivor count not shown]
same,T/C,"dose: 0.53 mg/kg/injection, vehicle: carboxymethylcellulose (CMC)",85 % of control [survivor count not shown]
same,T/C,"dose: 0.75 mg/kg/injection, vehicle: carboxymethylcellulose (CMC)",83 % of control [survivor count not shown]
same,T/C,"dose: 0.88 mg/kg/injection, vehicle: other",52 % of control [survivor count not shown]
same,T/C,"dose: 0.9 mg/kg/injection, vehicle: carboxymethylcellulose (CMC)",42 [survivor count not shown] and 78 % of control [survivor count not shown]
same,T/C,"dose: 1.05 mg/kg/injection, vehicle: carboxymethylcellulose (CMC)",92 % of control [survivor count not shown]
same,T/C,"dose: 1.5 mg/kg/injection, vehicle: carboxymethylcellulose (CMC)",124 % of control [survivor count not shown]
same,T/C,"dose: 1.75 mg/kg/injection, vehicle: other",48 % of control [survivor count not shown]
same,T/C,"dose: 1.8 mg/kg/injection, vehicle: carboxymethylcellulose (CMC)",85 [survivor count not shown] and 90 % of control [survivor count not shown]
same,T/C,"dose: 2.1 mg/kg/injection, vehicle: carboxymethylcellulose (CMC)",85 % of control [survivor count not shown]
same,T/C,"dose: 3.0 mg/kg/injection, vehicle: carboxymethylcellulose (CMC)",34 % of control [survivor count not shown]
same,T/C,"dose: 3.5 mg/kg/injection, vehicle: other",41 % of control [survivor count not shown]
same,T/C,"dose: 3.6 mg/kg/injection, vehicle: carboxymethylcellulose (CMC)",67 [survivor count not shown] and 73 % of control [survivor count not shown]
same,T/C,"dose: 4.2 mg/kg/injection, vehicle: carboxymethylcellulose (CMC)",88 % of control [survivor count not shown]
same,T/C,"dose: 7.2 mg/kg/injection, vehicle: carboxymethylcellulose (CMC)",79 [survivor count not shown] and 125 % of control [survivor count not shown]
same,T/C,"dose: 912.0 micrograms/kg/injection, vehicle: carboxymethylcellulose (CMC)",66 % of control [survivor count not shown]
same,T/C,"dose: 1825.0 micrograms/kg/injection, vehicle: carboxymethylcellulose (CMC)",89 % of control [survivor count not shown]
same,T/C,"dose: 3650.0 micrograms/kg/injection, vehicle: carboxymethylcellulose (CMC)",62 % of control [survivor count not shown]
same,T/C,"dose: 7300.0 micrograms/kg/injection, vehicle: carboxymethylcellulose (CMC)",67 % of control [survivor count not shown]
COc1cccc(N(CCCl)CCCl)c1OC,T/C,"dose: 7.5 mg/kg/injection, vehicle: carboxymethylcellulose (CMC)",82 % of control [survivor count not shown]
same,T/C,"dose: 15.0 mg/kg/injection, vehicle: carboxymethylcellulose (CMC)",125 % of control [survivor count not shown]
same,T/C,"dose: 30.0 mg/kg/injection, vehicle: carboxymethylcellulose (CMC)",105 % of control [survivor count not shown]
same,T/C,"dose: 60.0 mg/kg/injection, vehicle: carboxymethylcellulose (CMC)",58 % of control [survivor count not shown]
